Results are given in words; binding and its absence hold for the method and conditions named. Binding seen in cells or lysates may run through a third protein. Some entries that bind do so weakly or less than the wild type. Tags and fused reporters may be left off the sequences shown.
Columns and labels:
Assay in all cases: split reporter; BiFC in transfected Arabidopsis mesophyll protoplasts, nYFP on SMG7 and cYFP on the partner, imaged by confocal microscopy after 16 h
[1] = target: T1, nYFP-SMG7 (Arabidopsis thaliana) (UniProt A9QM73)
T1 sequence: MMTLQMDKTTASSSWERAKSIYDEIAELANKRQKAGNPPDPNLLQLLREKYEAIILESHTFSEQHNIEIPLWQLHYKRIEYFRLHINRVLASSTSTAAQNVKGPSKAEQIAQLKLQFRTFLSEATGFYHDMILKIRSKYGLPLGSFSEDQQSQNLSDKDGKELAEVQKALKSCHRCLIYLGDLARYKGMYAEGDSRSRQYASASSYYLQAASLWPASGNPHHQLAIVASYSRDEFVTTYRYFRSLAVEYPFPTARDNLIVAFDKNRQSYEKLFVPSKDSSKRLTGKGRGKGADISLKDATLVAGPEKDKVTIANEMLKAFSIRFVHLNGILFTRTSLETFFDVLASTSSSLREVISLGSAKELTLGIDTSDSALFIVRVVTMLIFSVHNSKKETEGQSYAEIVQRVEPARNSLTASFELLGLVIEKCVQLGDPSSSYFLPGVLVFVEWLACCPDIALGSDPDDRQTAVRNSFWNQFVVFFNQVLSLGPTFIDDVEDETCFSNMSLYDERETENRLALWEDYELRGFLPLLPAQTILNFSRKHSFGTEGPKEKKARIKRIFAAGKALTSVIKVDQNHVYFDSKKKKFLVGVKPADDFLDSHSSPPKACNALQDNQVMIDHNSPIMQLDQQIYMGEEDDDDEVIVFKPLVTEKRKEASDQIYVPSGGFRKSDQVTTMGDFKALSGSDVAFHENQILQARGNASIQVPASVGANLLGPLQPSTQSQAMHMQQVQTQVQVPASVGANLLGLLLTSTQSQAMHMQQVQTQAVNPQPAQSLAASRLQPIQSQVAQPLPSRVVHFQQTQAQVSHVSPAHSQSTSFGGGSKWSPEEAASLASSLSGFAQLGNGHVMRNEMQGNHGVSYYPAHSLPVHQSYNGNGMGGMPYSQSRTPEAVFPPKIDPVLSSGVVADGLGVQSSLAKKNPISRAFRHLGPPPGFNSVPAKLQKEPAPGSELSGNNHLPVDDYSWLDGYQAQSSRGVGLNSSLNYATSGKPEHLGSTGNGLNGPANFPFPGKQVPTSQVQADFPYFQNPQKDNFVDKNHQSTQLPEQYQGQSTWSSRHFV

Sequences of proteins named here, by UniProt entry; tags and fusion partners are left off.
UniProt P41376: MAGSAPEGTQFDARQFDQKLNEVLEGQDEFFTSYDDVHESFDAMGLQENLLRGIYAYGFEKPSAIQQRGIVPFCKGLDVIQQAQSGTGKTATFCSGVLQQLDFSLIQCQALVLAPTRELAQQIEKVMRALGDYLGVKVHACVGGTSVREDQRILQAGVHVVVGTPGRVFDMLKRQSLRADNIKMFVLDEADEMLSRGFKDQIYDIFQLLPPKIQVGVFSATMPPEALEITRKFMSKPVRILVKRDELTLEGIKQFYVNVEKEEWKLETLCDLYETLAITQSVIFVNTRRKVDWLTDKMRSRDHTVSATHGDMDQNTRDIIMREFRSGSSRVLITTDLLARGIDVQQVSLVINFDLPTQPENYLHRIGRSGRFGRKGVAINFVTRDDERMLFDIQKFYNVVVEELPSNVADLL
UniProt P41377: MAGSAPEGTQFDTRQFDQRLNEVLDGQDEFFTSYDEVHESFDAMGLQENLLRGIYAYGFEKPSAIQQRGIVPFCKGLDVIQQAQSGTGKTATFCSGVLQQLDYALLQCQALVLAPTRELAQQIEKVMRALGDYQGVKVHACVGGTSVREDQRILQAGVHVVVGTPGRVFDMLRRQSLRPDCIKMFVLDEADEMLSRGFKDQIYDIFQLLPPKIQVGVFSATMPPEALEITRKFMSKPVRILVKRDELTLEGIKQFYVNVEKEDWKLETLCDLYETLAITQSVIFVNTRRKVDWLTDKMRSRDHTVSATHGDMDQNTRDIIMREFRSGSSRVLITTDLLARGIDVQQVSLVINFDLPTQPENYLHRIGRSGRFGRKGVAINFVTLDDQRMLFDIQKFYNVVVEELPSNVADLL

[2] = target: T2, nYFP-SMG7^Δ702-1059 (Arabidopsis thaliana) (UniProt A9QM73)
T2 sequence: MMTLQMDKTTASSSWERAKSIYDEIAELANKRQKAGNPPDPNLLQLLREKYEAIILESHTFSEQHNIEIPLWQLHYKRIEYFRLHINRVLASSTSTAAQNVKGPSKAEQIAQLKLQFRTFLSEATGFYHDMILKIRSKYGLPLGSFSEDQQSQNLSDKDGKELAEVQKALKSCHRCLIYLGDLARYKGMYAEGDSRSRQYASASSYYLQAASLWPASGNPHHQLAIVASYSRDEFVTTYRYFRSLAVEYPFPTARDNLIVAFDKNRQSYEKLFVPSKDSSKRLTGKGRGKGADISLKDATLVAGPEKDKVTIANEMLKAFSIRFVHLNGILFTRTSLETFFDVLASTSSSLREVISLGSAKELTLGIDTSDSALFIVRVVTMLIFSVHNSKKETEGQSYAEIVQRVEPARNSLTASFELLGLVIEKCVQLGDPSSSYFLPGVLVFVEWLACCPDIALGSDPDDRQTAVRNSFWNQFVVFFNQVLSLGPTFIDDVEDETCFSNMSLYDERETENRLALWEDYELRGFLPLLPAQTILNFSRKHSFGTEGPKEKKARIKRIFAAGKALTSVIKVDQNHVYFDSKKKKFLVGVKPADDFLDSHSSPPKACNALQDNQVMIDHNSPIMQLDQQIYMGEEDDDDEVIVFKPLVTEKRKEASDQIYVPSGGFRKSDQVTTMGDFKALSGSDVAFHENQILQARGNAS

[3] = target: T3, nYFP-SMG7^Δ715-885 (Arabidopsis thaliana) (UniProt A9QM73)
T3 sequence: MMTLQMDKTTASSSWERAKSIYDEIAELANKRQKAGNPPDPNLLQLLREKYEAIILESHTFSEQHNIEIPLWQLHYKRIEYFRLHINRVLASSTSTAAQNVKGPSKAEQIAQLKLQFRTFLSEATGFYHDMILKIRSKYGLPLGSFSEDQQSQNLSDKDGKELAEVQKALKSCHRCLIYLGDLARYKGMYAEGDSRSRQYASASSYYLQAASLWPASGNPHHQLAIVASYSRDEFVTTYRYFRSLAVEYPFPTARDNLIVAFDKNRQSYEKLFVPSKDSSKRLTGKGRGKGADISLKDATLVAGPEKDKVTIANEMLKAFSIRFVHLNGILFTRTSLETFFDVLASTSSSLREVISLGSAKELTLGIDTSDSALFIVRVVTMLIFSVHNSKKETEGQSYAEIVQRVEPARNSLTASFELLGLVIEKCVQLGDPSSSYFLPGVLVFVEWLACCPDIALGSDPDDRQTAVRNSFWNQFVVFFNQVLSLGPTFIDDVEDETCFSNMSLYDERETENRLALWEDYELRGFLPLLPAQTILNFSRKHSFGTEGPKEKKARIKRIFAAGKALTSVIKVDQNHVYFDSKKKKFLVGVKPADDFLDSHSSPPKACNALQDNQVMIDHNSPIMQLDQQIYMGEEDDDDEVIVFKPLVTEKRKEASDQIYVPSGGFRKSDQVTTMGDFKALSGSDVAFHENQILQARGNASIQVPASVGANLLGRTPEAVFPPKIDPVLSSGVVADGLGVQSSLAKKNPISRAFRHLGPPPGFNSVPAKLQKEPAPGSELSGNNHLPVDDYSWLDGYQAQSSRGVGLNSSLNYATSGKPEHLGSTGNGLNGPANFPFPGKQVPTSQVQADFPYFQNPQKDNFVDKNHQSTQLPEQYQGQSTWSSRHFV

Measured: binding

eIF4A1-cYFP (from UniProt P41376 1-412)
binds: all assays above

eIF4A2-cYFP (from UniProt P41377 1-412)
binds: all assays above
